Measured data: PubChem BioAssay AID504774 (Drosophila RNAi Screening Center, 2011)

- Purpose: 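Fly genes whose loss alters survival after alkylation damage to DNA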 (primary screen)
- System: Drosophila Kc167 cells
- Reagents: long dsRNA against Drosophila genes, about 0.25 µg dsRNA per well
- Duration: about 6 days: 3 days knock-down, then 3 days with or without MMS
- Challenge: methyl methanesulphonate 0.004% (w/v) for 3 days after knock-down
- Measured: 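ATP-dependent luminescence as a measure of live cells in MMS-exposed wells, quantile normalised within each plate, with replicate values also given as a mean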
- Reading the numbers: mean viability with MMS and viability with MMS: higher = more surviving cells after MMS
The deposit covers about 23,000 reagents; below is a random part of those that have a named target and a result. 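Values are quantile-normalised luminescence on an arbitrary scale; higher means more cells surviving MMS.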 The numbers tell different reagents against one gene apart. A plus sign joins genes that one reagent is predicted to hit. Further read-outs or replicates are left out here.

no.	gene	reagent no.	mean viability with MMS	viability with MMS, replicate 1
1	ORMDL	1	3.73e6	4.20e6
2	Grx5	1	3.64e6	4.04e6
3	CG6066	1	3.72e6	4.26e6
4	CG6066	2	3.38e6	3.84e6
5	H2.0	1	3.63e6	3.75e6
6	H2.0	2	3.77e6	4.13e6
7	C15	1	3.32e6	3.77e6
8	C15	2	3.58e6	4.05e6
9	CG1620	1	3.12e6	2.55e6
10	CG15252	1	3.59e6	4.20e6
11	CG9646	1	3.47e6	3.86e6
12	Asx	1	2.80e6	3.26e6
13	CG42564	1	3.49e6	4.01e6
14	CG34265	1	3.45e6	4.02e6
15	CG34304 (retired record)	1	3.41e6	3.85e6
16	CG42820 + CG42819	1	3.49e6	4.06e6
17	CG42820 + CG42819	2	3.70e6	4.48e6
18	CG40282 (retired record)	1	3.51e6	4.03e6
19	CG5191	1	3.66e6	4.07e6
20	CG5191	2	3.56e6	4.03e6
21	CG5191	3	3.49e6	3.97e6
22	twin	1	3.82e6	4.33e6
23	twin	2	3.75e6	4.24e6
24	twin	3	3.85e6	4.39e6
25	Obp50b + Obp50c	1	3.49e6	3.91e6
26	Jon65Aiv	1	3.64e6	4.14e6
27	CG13248	1	3.60e6	4.01e6
28	ago	1	3.53e6	3.88e6
29	CG42748	1	3.57e6	4.05e6
30	CG42748	2	3.59e6	4.05e6
31	CG42748	3	3.51e6	4.01e6
32	Vps29	1	3.71e6	4.15e6
33	clt	1	3.64e6	4.08e6
34	Usp47	1	3.51e6	3.99e6
35	Gr98b	1	3.54e6	4.01e6
36	gt	1	3.20e6	3.71e6
37	gt	2	3.56e6	4.05e6
38	CG4080	1	3.58e6	4.14e6
39	CG15296	1	3.46e6	3.99e6
40	fau	1	3.27e6	3.81e6
41	fau	2	3.53e6	3.88e6
42	fau	3	3.71e6	4.11e6
43	fau	4	3.55e6	4.05e6
44	fau	5	3.70e6	4.23e6
45	fau	6	3.66e6	4.12e6
46	r-cup	1	3.43e6	3.95e6
47	cola + swif	1	3.60e6	4.01e6
48	cola + swif	2	3.51e6	4.08e6
49	CG16890	1	3.66e6	4.00e6
50	Sas-4	1	3.51e6	4.10e6
51	Efhc1.2	1	3.62e6	4.22e6
52	eIF2alpha	1	3.18e6	3.59e6
53	CG13991	1	3.57e6	3.98e6
54	TfIIEalpha	1	3.28e6	3.76e6
55	CG10013	1	3.70e6	4.24e6
56	mthl15	1	3.34e6	3.85e6
57	Gpdh3	1	3.59e6	4.01e6
58	Gpdh3	2	3.49e6	3.86e6
59	CG8160	1	3.71e6	3.97e6
60	CG8160	2	3.66e6	4.11e6
61	CG12171	1	3.56e6	4.08e6
62	CG9500	1	3.47e6	4.06e6
63	Lamtor5	1	3.46e6	3.98e6
64	trh	1	3.54e6	3.95e6
65	trh	2	3.58e6	4.07e6
66	FMRFaR	1	3.58e6	4.03e6
67	CG30008	1	3.43e6	3.93e6
68	Syp	1	3.40e6	3.92e6
69	Syp	2	3.64e6	4.07e6
70	CG14453	1	3.54e6	4.34e6
71	CG11370	1	3.45e6	3.92e6
72	Tsp39D	1	3.42e6	3.82e6
73	CG5273	1	3.61e6	4.18e6
74	CG6885	1	3.37e6	3.77e6
75	CG12493	1	3.69e6	4.16e6
76	Ero1L	1	3.52e6	4.02e6
77	DppIII	1	3.40e6	3.85e6
78	CG31221	1	3.51e6	3.88e6
79	CG31221	2	3.55e6	3.88e6
80	CG12523	1	3.65e6	3.92e6
81	drosha	1	3.50e6	4.06e6
82	CG12971	1	3.63e6	4.13e6
83	CG15082	1	3.28e6	3.69e6
84	CG17195	1	3.57e6	4.05e6
85	Kcmf1	1	3.54e6	4.10e6
86	Vrp1	1	3.43e6	3.98e6
87	CG46339	1	3.65e6	4.17e6
